Source: patent publication US20220307159

Tested on: eIF3 complex (detected via eIF3b) (Homo sapiens)
Assay: pull-down
Conditions: HEK293FT lysate, 4 C 12 h, anti-eIF3b detection (Wes); low-ranked RNA; protein in an extract; protein details: endogenous, HEK293FT cell lysate; label: 3' biotin on DNA barcode strand

Sequence: GGAUACUAGCGCGGCUGUGAGUCUGGGGUGUACGAGCAGGUGUUUGGACUAACCUGCUCGUGCACC / CCAGACTCACAGCCGCGCTAGTATCCAAG [Rank8531_Pulldown_RNA_Probe]
- binding result: no binding

The exact form of at least one protein or probe is not confirmed. Where cells or extracts were used, other partners may take part. Negatives hold for the conditions tested.
